Patent US20220144905A1

B1: OP10-463 (peptide)
peptide: RRLYYEGLQD
B2: OP10-507 (peptide)
peptide: QIQLAQKLEI
B3: OP10-527 (peptide)
peptide: VQRQLAIQRL

Target: GST-labeled STAM (Human) Recombinant Protein (Abnova) (human)
Experiment: SPR (ProteOn XPR36), GST-labeled protein immobilized on GLH chip, GST as blank

binding, binds:
B1
B2
B3

Results are given in words; binding and its absence hold for the method and conditions named. Binding calls can cover weak binding; strength is not graded here.
